Our source for the binding values is PMC4999505.

Sequences of proteins named here, by UniProt entry; tags and fusion partners are left off. Residues count along the entry.
UniProt P19438, residues 30-455: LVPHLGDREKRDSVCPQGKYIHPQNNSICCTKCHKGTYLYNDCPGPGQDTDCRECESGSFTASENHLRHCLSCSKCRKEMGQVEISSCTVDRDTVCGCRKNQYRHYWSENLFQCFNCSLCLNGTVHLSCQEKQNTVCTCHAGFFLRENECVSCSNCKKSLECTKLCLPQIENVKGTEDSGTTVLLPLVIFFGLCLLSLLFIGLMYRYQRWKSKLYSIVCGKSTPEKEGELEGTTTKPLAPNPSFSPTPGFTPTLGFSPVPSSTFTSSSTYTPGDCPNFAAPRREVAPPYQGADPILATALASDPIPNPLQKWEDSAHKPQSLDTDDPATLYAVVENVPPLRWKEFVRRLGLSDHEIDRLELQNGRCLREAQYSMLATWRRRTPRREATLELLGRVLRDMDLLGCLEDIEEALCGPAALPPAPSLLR

These are yes or no findings as the source states them, for the method shown. Binding seen in cells or lysates may run through a third protein. Some results given as binding are weak or reduced against the parent protein; the word gives no strength.

This experiment has as its target TNF receptor (TNFR) (human (endogenous in HeLa)) (UniProt P19438). The experiment in a line: co-IP; parental and OPTN-KO HeLa cells stimulated with 1 μg/ml FLAG-TNF-α for the indicated times, lysed in 1% Triton X-100 buffer; TNFR complex I precipitated with anti-FLAG M2 beads, immunoblotting; also with overexpression of OPTN (Supplementary Fig. 10). On the technique in general: A western blot detects proteins with antibodies after separation by electrophoresis.

B1: endogenous SHARPIN (LUBAC component) (protein, UniProt Q9H0F6 1-387)
chain: MAPPAGGAAAAASDLGSAAVLLAVHAAVRPLGAGPDAEAQLRRLQLSADPERPGRFRLELLGAGPGAVNLEWPLESVSYTIRGPTQHELQPPPGGPGTLSLHFLNPQEAQRWAVLVRGATVEGQNGSKSNSPPALGPEACPVSLPSPPEASTLKGPPPEADLPRSPGNLTEREELAGSLARAIAGGDEKGAAQVAAVLAQHRVALSVQLQEACFPPGPIRLQVTLEDAASAASAASSAHVALQVHPHCTVAALQEQVFSELGFPPAVQRWVIGRCLCVPERSLASYGVRQDGDPAFLYLLSAPREAPATGPSPQHPQKMDGELGRLFPPSLGLPPGPQPAASSLPSPLQPSWSCPSCTFINAPDRPGCEMCSTQRPCTWDPLAAAST
Consider B1, for which the binding result was “binds”.

B2: TNFR-associated protein with a death domain (TRADD), endogenous (protein, UniProt Q15628 1-312)
chain: MAAGQNGHEEWVGSAYLFVESSLDKVVLSDAYAHPQQKVAVYRALQAALAESGGSPDVLQMLKIHRSDPQLIVQLRFCGRQPCGRFLRAYREGALRAALQRSLAAALAQHSVPLQLELRAGAERLDALLADEERCLSCILAQQPDRLRDEELAELEDALRNLKCGSGARGGDGEVASAPLQPPVPSLSEVKPPPPPPPAQTFLFQGQPVVNRPLSLKDQQTFARSVGLKWRKVGRSLQRGCRALRDPALDSLAYEYEREGLYEQAFQLLRRFVQAEGRRATLQRLVEALEENELTSLAEDLLGLTDPNGGLA
On to B2, for which the binding entry is given as “binds”.
